Test in all cases: co-IP
The target in test [1] is T1, FLAG-MDA5 (human (cDNA from HEK293 cells)) (UniProt Q9BYX4).
T1 sequence: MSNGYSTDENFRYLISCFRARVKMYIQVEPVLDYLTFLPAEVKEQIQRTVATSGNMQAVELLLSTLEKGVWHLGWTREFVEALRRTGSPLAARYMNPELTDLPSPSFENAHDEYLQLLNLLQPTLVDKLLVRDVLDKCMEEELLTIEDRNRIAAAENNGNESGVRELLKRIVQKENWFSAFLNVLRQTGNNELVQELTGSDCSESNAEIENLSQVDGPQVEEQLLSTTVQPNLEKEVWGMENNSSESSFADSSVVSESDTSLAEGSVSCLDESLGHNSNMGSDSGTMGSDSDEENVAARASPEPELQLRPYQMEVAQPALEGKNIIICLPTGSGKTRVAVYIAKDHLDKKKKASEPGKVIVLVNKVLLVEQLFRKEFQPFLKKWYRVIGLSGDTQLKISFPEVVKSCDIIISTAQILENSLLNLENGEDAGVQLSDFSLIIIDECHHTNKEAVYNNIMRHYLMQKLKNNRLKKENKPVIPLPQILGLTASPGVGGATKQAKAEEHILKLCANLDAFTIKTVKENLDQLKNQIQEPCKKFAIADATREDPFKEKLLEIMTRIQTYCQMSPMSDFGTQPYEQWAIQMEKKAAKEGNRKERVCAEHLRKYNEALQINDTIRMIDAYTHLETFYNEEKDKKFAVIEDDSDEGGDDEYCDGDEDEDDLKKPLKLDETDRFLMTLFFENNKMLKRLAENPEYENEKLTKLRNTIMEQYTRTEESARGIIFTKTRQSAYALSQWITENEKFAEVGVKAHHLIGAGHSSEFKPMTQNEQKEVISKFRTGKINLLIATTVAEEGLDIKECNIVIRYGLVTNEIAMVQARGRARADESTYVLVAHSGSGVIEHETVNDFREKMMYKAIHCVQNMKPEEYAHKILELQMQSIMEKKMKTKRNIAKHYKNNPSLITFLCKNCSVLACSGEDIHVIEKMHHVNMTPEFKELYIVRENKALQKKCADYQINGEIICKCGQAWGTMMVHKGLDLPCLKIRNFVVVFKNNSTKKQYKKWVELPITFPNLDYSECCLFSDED

Protein sequences, listed by entry. Tags and fused reporters are not part of them. Lines headed by an entry give the natural chain unless they say otherwise; changes in a name come on top. Residues count along the entry.
UniProt P07355, whole entry: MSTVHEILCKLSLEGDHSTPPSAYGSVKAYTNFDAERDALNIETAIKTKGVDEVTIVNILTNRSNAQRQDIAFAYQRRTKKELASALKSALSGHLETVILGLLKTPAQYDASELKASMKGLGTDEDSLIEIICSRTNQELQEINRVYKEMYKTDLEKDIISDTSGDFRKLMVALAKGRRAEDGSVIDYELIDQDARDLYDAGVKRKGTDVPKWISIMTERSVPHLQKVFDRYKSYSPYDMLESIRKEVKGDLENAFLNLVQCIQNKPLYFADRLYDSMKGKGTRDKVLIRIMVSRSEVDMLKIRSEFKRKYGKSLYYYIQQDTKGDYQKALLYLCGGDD
UniProt P07355, 1-108: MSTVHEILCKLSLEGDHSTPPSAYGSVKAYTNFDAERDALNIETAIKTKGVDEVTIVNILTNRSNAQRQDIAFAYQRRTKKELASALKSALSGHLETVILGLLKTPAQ
UniProt P07355, 1-187: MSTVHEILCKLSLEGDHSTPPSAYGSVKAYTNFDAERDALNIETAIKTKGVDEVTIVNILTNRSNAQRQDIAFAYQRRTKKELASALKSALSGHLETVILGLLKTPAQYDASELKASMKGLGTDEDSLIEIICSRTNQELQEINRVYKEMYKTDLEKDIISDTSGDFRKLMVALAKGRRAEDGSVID
UniProt P07355, 1-268: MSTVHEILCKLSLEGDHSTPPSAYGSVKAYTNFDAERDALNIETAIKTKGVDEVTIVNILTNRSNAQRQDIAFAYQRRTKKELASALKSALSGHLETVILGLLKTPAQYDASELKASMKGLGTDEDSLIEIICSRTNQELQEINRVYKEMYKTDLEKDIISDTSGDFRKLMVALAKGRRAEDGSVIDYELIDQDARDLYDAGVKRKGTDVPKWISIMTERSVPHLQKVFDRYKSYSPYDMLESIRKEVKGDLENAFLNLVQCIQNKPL

The target of test [2] is T2, Melanoma differentiation-associated protein 5 (MDA5), endogenous in THP1 cells (human (endogenous in THP1)) (UniProt Q9BYX4).
T2 sequence: T1 sequence

For test [3], the target named is T2, Melanoma differentiation-associated protein 5 (MDA5), endogenous in THP1 cells (human (endogenous in THP1)). This is another data set of the same source.
The target in test [4] is T3, FLAG-MDA5-ΔCARD (human (cDNA from HEK293 cells)) (UniProt Q9BYX4).
T3 sequence: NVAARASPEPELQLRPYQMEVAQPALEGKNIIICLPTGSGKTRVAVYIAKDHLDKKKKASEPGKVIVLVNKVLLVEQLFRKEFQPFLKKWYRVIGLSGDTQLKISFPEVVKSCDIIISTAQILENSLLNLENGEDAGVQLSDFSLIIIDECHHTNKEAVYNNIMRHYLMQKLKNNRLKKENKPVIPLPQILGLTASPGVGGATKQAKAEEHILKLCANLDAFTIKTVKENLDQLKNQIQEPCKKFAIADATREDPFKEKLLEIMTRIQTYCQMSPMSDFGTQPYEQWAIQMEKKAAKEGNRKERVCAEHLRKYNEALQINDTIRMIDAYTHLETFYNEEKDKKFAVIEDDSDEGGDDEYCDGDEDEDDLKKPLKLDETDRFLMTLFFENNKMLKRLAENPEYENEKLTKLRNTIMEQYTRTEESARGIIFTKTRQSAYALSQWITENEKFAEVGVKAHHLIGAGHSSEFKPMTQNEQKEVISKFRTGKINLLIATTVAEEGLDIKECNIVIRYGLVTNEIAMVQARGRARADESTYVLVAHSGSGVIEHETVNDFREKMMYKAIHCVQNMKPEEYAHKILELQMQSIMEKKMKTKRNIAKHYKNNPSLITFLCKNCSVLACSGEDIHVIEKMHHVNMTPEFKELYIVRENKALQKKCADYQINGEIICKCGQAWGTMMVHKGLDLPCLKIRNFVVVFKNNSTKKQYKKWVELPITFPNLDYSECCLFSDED

Like-named read-outs stand apart in the source and are kept apart here. Results are given in words; binding and its absence hold for the method and conditions named. In cells and extracts the contact can be indirect. Some binding calls cover weakened binding; strength is not graded here. For part of these data: Tags and fused reporters may be left off the sequences shown.

The values that follow come from doi:10.1101/2025.10.28.684968.

Turning to “HA-ANXA2-PP1-mut (from UniProt P07355 1-339)”, in test [1], the binding entry is listed as “binds”.
Still for that read-out and setting: the result for “HA-ANXA2-Y188X (from UniProt P07355 1-187) (domain or fragment)” reads “binds”.
“Annexin A2 (ANXA2), endogenous in THP1 cells (from UniProt P07355 1-339)”: the binding result in test [2] was “binds”; in test [3], “no binding (condition: uninfected cells)”.
“HA-ANXA2-Y109X (from UniProt P07355 1-108) (domain or fragment)”: in test [1], the binding entry was “binds”.
In the case of “HA-ANXA2-Y269X (from UniProt P07355 1-268) (domain or fragment)”, the binding result in test [1] is “binds”.
On the same count and under the same terms, the result for “HA-ANXA2-S12A (from UniProt P07355 1-339)” reads “binds”.
As for HA-ANXA2 (from UniProt P07355 1-339), the binding entry in test [1] was “binds”; in test [4], “no binding”.
